## Results of single-concentration screens

Sequences of proteins named here, by UniProt entry; tags and fusion partners are left off. Residues count along the entry.
UniProt I6X8D2, whole entry: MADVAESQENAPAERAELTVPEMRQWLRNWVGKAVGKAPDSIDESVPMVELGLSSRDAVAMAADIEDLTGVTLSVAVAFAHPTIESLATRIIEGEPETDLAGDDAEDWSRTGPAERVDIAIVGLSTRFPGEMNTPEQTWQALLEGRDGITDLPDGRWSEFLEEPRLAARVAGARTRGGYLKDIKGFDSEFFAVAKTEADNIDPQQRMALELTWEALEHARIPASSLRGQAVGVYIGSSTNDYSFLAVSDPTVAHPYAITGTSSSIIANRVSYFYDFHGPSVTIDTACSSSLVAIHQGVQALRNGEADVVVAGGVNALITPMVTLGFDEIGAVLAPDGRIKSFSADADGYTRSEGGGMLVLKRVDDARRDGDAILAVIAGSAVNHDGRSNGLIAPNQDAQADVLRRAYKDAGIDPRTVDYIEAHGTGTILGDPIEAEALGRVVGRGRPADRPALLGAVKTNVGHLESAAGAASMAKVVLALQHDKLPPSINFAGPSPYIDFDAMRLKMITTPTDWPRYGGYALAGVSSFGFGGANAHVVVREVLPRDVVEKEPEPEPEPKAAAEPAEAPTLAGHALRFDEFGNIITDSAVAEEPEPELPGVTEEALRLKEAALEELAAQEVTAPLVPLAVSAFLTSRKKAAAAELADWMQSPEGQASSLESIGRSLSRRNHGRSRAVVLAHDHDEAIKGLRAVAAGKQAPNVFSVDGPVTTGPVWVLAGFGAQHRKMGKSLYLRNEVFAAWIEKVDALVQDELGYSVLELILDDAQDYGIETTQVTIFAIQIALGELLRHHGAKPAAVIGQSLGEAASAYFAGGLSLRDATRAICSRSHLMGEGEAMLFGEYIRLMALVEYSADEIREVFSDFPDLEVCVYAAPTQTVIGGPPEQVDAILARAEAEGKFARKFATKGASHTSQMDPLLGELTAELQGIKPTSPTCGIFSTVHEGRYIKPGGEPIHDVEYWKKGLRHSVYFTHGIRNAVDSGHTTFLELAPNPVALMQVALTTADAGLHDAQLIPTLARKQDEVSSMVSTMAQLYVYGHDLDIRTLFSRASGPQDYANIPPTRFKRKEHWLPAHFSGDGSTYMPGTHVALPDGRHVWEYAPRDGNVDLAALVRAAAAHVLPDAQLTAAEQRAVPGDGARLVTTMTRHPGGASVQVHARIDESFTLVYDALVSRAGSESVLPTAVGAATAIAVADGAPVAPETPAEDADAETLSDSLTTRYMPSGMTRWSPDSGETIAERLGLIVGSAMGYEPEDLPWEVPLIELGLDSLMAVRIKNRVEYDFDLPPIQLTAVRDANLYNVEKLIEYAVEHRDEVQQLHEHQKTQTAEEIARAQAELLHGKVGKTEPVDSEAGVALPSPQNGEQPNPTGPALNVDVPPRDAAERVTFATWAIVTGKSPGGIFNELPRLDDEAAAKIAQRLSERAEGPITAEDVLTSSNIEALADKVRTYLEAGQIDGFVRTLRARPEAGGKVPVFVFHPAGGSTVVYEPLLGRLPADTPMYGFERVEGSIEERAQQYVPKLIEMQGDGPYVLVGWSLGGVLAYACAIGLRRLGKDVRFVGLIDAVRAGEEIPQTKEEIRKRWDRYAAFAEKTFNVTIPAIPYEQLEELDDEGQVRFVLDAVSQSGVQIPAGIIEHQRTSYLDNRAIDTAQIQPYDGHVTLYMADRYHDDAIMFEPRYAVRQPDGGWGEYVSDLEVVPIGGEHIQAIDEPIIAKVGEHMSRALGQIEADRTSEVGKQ
UniProt Q4DA54, 1-478: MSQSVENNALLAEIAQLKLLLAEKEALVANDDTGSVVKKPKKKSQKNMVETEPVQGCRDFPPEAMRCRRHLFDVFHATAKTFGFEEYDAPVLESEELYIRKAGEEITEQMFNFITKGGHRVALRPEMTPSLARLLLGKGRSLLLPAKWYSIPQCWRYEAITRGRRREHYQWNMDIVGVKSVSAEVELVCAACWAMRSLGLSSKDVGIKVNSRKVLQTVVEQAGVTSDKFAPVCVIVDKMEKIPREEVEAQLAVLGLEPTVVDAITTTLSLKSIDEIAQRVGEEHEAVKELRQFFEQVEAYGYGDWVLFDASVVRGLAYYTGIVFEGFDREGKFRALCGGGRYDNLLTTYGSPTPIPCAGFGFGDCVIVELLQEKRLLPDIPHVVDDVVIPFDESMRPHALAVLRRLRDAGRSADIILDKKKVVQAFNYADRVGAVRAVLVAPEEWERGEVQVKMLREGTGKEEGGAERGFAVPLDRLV
UniProt P9WFT3, whole entry: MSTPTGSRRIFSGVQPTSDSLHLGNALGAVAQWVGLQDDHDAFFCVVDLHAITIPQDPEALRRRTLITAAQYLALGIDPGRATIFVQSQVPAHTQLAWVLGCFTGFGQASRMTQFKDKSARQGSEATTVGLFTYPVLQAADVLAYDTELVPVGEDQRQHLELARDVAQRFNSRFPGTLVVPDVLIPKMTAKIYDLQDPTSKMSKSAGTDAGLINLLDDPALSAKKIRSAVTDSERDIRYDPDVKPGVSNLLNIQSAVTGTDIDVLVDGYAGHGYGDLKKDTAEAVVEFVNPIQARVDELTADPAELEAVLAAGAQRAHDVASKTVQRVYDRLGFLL
UniProt P9WPC5, whole entry: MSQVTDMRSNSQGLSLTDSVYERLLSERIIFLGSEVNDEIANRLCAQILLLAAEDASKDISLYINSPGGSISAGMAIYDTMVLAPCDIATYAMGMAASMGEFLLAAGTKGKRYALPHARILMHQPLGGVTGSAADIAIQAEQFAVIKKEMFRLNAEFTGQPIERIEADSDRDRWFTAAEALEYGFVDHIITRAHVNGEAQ
UniProt P9WPC3, whole entry partner: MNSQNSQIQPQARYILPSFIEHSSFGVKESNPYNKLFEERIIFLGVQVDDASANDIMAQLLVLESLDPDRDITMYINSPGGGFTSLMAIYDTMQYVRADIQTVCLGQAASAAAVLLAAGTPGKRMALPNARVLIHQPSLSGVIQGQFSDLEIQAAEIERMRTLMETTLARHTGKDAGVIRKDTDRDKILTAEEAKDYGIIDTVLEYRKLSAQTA

The values are deposited in ChEMBL (CHEMBL3988442, “University of Dundee, Small-Polar-MMV Screening Library” (2021)).

A: 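Polyketide synthase Pks13, Mycobacterium tuberculosis (UniProt I6X8D2). Enzyme assay of the thioesterase domain of polyketide synthase 13; the read-out is not stated. Concentration: 30 µM. Higher reads as stronger inhibition (inferred from which compounds were picked for retests). Size under these conditions: about 67,000 compounds, about 300 of them at 50% or above in at least one test.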
B: 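Enzyme assay of histidyl-tRNA synthetase; the read-out is not stated. Target: Histidine-tRNA ligase, Trypanosoma cruzi CL Brener (UniProt Q4DA54). Compounds at 30 µM. The record gives no direction; compounds that gave an IC50 in retests scored well above the rest, so higher reads as stronger inhibition. About 69,000 compounds were tested under these conditions; 0.045% (about 31) showed 50% or more at least once.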
C: 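Tryptophan-tRNA ligase, Mycobacterium tuberculosis (UniProt P9WFT3). Enzyme assay of tryptophanyl-tRNA synthetase; the read-out is not stated. Compounds at 10 µM. Higher most likely means stronger inhibition; the record gives no direction and few retests gave an IC50. About 65,000 compounds were tested under these conditions; 0.098% (about 64) showed 50% or more at least once.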
D: 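ClpP1P2, Mycobacterium tuberculosis (UniProt P9WPC5 and UniProt P9WPC3). Protease assay of ClpP1P2, read by the AMC dye that it sets free. Concentration: 50 µM. Higher reads as stronger inhibition, judged from the few compounds that gave an IC50. Most other retested compounds had strongly negative values. Size under these conditions: about 69,000 compounds, about 10 of them at 50% or above in at least one test.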

Values are the deposited “Percent Effect”, in %. The record does not define 0% and 100%; most values in the screen are far below 50% and negative numbers occur (in some assays of this library far below -100). The compounds are a random part of those screened.

With Cc1cccc(OCCNC(=O)CN2CCCC2Cn2cncn2)c1 (stereo not drawn) the screen gave A: -2.589%; B: 8.092%; C: -7.85%; D: -36.85%. For Cn1c(=O)oc2cc(Nc3nccnc3C#N)ccc21 the result was A: -12.41%; B: 4.762%; C: 1.975%; D: -6.188%. For O=C(c1ccnnc1)N1CCN2C[C@H](OCc3cccnc3)C[C@H]2C1 the result was A: -1.107%; B: 5.882%; C: -1.876%; D: -2.823%. With CO[C@@H]1CCN(Cc2ccc(C)o2)[C@H]1Cc1ccccc1 the screen gave A: -2.139%; B: 7.595%; C: -4.207%; D: -4.165%.

With Cc1nc(C2(NC(=O)NCc3cc(C#N)ccc3F)CCCC2)no1 the screen gave A: -37.24%; B: 7.792%; C: 2.993%; D: 4.323%. CN1CCC(N(C)CCC(=O)N2CCC(Cc3ccc(F)cc3)CC2)C1 (stereo not drawn) read A: 47.08%; B: 6.494%; C: 14.09%; D: -6.442%. c1cnc(N2CCC3(CCN(CC4CCOC4)CC3)CC2)nc1 (stereo not drawn) read A: 0.009865%; B: 7.2%; C: -2.596%; D: -1.429%. Cc1nc(CN2C[C@@H]3CN(C(=O)Cc4ccccn4)C[C@@H]3C2)cs1 gave A: -7.103%; B: 5.528%; D: -1.032%.

COc1ccc(F)cc1C(=O)N(C)[C@@H]1CC[C@@H](O)[C@@H]1O gave A: -3.173%; B: 0.7692%; C: -4.552%; D: 2.955%. Cc1cccc(CN2Cc3[nH]nc(COCc4nccs4)c3C2)n1 read A: -47.34%; B: 8.602%; C: 0.6342%; D: -5.396%. O=C(NCC(CO)Cc1ccc(Cl)cc1)c1ccncc1F (stereo not drawn) gave A: -29.78%; B: 9.845%; C: 2.417%; D: -0.1669%. With Cc1ccc2[nH]c(CN(C)Cc3n[nH]c4c3CCC4)nc2c1 the screen gave A: -40.59%; B: 7.447%; C: -4.332%; D: -12.12%.

With O=S(=O)(N1CCOCC1)N1CCC(Oc2cnccn2)CC1 the screen gave A: -13.1%; B: 12.77%; D: 3.548%. CC(C)N(Cc1cnn(C)c1)CC1CCCN(S(C)(=O)=O)C1 (stereo not drawn) read A: -1.702%; B: 3.448%; C: 0.7261%; D: 5.524%. For CCC(C)(C)NC(=O)CSCc1ccc(S(=O)(=O)N(C)C)o1 the result was A: -32.05%; B: 1.111%; C: -6.003%; D: 7.888%. Result for Cc1cccc(CNC(=O)N(CCCO)C2CCc3ccccc32)n1 (stereo not drawn) was A: -21.92%; B: 5.764%; C: 3.245%; D: -33.08%.

With O=C1COC2(CCN(CC3CC3)CC2)CN1c1cncnc1 the screen gave A: -4.397%; B: 3.659%; C: 4.288%; D: -3.762%. Cc1cncc(C(=O)N2CCN(c3cnn(C)c(=O)c3)CC2)c1 gave A: -5.304%; B: -7.843%; C: -0.4515%; D: -16.78%. Result for CNc1ncc(CN(C)Cc2cc(O)c3cccc(Cl)c3n2)cn1 was A: -34.23%; B: 7.097%; C: -3.455%; D: -3.005%. Result for NC(=O)C1CCCN(c2ccc(CNC(=O)c3csnn3)cc2)C1 (stereo not drawn) was A: -1.109%; B: 2.254%; C: -0.3834%; D: 3.596%.

Result for CCN(CC)c1ncccc1CNCc1ccc(-c2ccn[nH]2)s1 was A: 5.952%; B: 4.02%; C: 6.51%; D: -8.363%. Result for N#Cc1c(N)nc2c(c1-c1c[nH]nc1C1CCCCC1)CNCC2 was A: -9.263%; B: 4.464%; C: 2.041%; D: -18.18%. Cn1ncc2c(NCCCOc3cccnc3)nc(C3CCCC3)nc21 read A: -14.15%; B: -2.041%; C: 1.347%; D: -1.17%. For Cn1cccc1C(=O)N1CCC2(CC1)COC(COc1ccccn1)C2 (stereo not drawn) the result was A: -0.35%; B: 9.091%; C: -3.487%; D: 5.311%.

CC(C(=O)N1CCCN(c2ccccc2C#N)CC1)n1cccn1 (stereo not drawn) read A: 9.556%; B: 2.89%; C: -4.475%; D: -52.98%. Result for Cn1nc(C2CNCCO2)cc1CCOc1ccc(Cl)cc1 (stereo not drawn) was A: 12.39%; B: 2.326%; C: -6.223%; D: -2.862%.

Repeated from the top, 2 entries:

Compound,A,B,C,D
Cc1cccc(OCCNC(=O)CN2CCCC2Cn2cncn2)c1 (stereo not drawn),-2.589%,8.092%,-7.85%,-36.85%
Cn1c(=O)oc2cc(Nc3nccnc3C#N)ccc21,-12.41%,4.762%,1.975%,-6.188%